At least one compound was matched to its structure with a doubt left.
Tested on: SARS-CoV-2
Format: cell-based

Q: With CCC(CC)COC(=O)[C@H](C)N[P@](=O)(OC[C@H]1O[C@@](C#N)(c2ccc3c(N)ncnn23)[C@H](O)[C@@H]1O)Oc1ccccc1 [Remdesivir] as the molecule, how does the “expression of the viral Spike and Nucleocapsid proteins within infected cells” value read?
A: this reduction was comparable to that obtained with Remdesivir
